These are yes or no findings as the source states them, for the method shown.
Target: 6X HIS tagged AtSUMO1, recombinant (Arabidopsis thaliana) (UniProt P55852)
Assay: SEC; size exclusion profile of recombinant NiNTA purified 6X HIS SUMO proteins on a SD75 column, void volume 40.25 ml; AtSUMO3 and AtSUMO5 after refolding; both purified

Sequences of proteins named here, by UniProt entry; tags and fusion partners are left off.
UniProt P55852: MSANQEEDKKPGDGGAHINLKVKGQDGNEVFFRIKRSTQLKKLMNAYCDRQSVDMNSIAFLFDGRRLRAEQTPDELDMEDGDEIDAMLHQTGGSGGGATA

binding: no binding
Substance: 6X HIS tagged AtSUMO1, recombinant (from UniProt P55852 1-100)

From publication PMC7461331, “Stability of Begomoviral pathogenicity determinant βC1 is modulated by mutually antagonistic SUMOylation and SIM interactions” (BMC Biology, 2020)
